Values from PubChem BioAssay AID1224828 (NIAID, 2016).
This is one part, drawn at random, of about 17,000 reagents tested. 762 of them (4.5%) count as active. 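Active calls include both raised and lowered p65 entry, mostly lowered; wells with fewer than 50 cells lack a z-score.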 Raw values vary from plate to plate and are shown uncorrected. Unmarked entries are inactive. The numbers tell different reagents against one gene apart. Some reagents were tested in more than one well and are listed for each.

- Purpose: 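Regulators linking TLR4 signalling to p65 nuclear translocation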 (primary screen)
- System: mouse RAW264.7 G9 macrophage reporter cells (GFP-p65, Tnf promoter-mCherry)
- Reagents: siRNA pool against mouse genes, 100 nM
- Duration: 2 days siRNA transfection, then 40 min LPS before fixation
- Conditions: LPS (Salmonella minnesota R595) at 10 ng/ml
- Measurement: 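Imaged p65 nuclear translocation ratio, normalised to the plate median, converted to robust z-scores and averaged across two replicates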
- Reading the numbers: p65 translocation robust z-score: higher = more nuclear NF-kappaB p65 after LPS than the plate median; nuclear/cytoplasmic p65 ratio: higher = more nuclear NF-kappaB p65
- Call rule: 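Called active when z exceeds 3.3 or falls under -1.56 (median of Tlr4 controls), giving activity score of at least 50; no calls for control wells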
- Meaning of the calls: active = hit (p65 shift raised or lowered); inactive = no clear change

p65 translocation robust z-score | nuclear/cytoplasmic p65 ratio, rep 1 | nuclear/cytoplasmic p65 ratio, rep 2 | low cell count flag | target gene | reagent no.
-0.49 | 1.33 | 1.38 | enough cells to score | Cd80 | 1
0.69 | 1.63 | 1.68 | enough cells to score | Ift122 | 1
0.1 | 1.43 | 1.57 | enough cells to score | 9530019H20Rik | 1
1.14 | 1.89 | 1.64 | enough cells to score | Hpgd | 1
0.15 | 1.67 | 1.49 | enough cells to score | B230340J04Rik | 1
-0.83 | 1.33 | 1.31 | enough cells to score | Kif3c | 1
-0.23 | 1.46 | 1.38 | enough cells to score | Ptn | 1
0.63 | 1.49 | 1.32 | enough cells to score | Ythdf3 | 1
– | 1.72 | 1.3 | fewer than 50 cells per well; well left out of scoring | Tbc1d15 | 1
0.76 | 1.69 | 1.38 | enough cells to score | Dpys | 1
-0.27 | 1.46 | 1.45 | enough cells to score | 1110059G10Rik | 1
– | 1.4 | 1.19 | fewer than 50 cells per well; well left out of scoring | Pbx4 | 1
1.55 | 1.58 | 1.44 | enough cells to score | Cenpx | 1
– | 1.42 | 1.29 | fewer than 50 cells per well; well left out of scoring | Ttc8 | 1
-0.9 | 1.29 | 1.31 | enough cells to score | Cebpz | 1
– | 1.18 | 1.5 | fewer than 50 cells per well; well left out of scoring | Bglap3 | 1
0.78 | 1.58 | 1.73 | enough cells to score | Taar5 | 1
0.28 | 1.57 | 1.49 | enough cells to score | Rbm11 | 1
-0.72 | 1.3 | 1.29 | enough cells to score | Myo15a | 1
4.39 (active) | 2.22 | 1.78 | enough cells to score | Dnajc12 | 1
0.4 | 1.48 | 1.41 | enough cells to score | Mmp15 | 1
1.06 | 1.64 | 1.69 | enough cells to score | Timm8a1 | 1
1.41 | 1.54 | 1.33 | enough cells to score | Slc38a9 | 1
0.89 | 1.57 | 1.65 | enough cells to score | Slc38a9 | 2
1.38 | 1.66 | 1.32 | enough cells to score | Rbp1 | 1
-0.61 | 1.41 | 1.29 | enough cells to score | Impg1 | 1
– | 1.25 | 1.14 | fewer than 50 cells per well; well left out of scoring | Rtp3 | 1
1.19 | 1.82 | 1.57 | enough cells to score | Ntrk2 | 1
– | 1.6 | 1.46 | fewer than 50 cells per well; well left out of scoring | Slc5a4a | 1
1.01 | 1.72 | 1.4 | enough cells to score | Ctnna2 | 1
0.81 | 1.79 | 1.64 | enough cells to score | Golph3 | 1
-0.54 | 1.48 | 1.48 | enough cells to score | H2-M10.1 | 1
– | 1.25 | 1.34 | fewer than 50 cells per well; well left out of scoring | Elfn2 | 1
-0.84 | 1.54 | 1.4 | enough cells to score | Gstk1 | 1
– | 1.46 | 1.18 | fewer than 50 cells per well; well left out of scoring | Or11i1 | 1
– | 1.17 | 1.34 | fewer than 50 cells per well; well left out of scoring | Tapt1 | 1
– | 1.25 | 1.07 | fewer than 50 cells per well; well left out of scoring | Pcnx3 | 1
1.94 | 1.79 | 1.63 | enough cells to score | Mapkapk3 | 1
1.35 | 1.69 | 1.45 | enough cells to score | Myh1 | 1
0.39 | 1.57 | 1.33 | enough cells to score | Mx1 | 1
-0.13 | 1.56 | 1.69 | enough cells to score | Crybg1 | 1
-0.41 | 1.58 | 1.36 | enough cells to score | Esam | 1
– | 1.39 | 1.41 | fewer than 50 cells per well; well left out of scoring | C230029D21Rik (retired record) | 1
– | 1.25 | 1.1 | fewer than 50 cells per well; well left out of scoring | Ndc1 | 1
-1.56 | 1.35 | 1.26 | enough cells to score | Gcnt1 | 1
-1.29 | 1.18 | 1.15 | enough cells to score | Tra2b | 1
– | 1.21 | 1.21 | fewer than 50 cells per well; well left out of scoring | Tra2b | 1
1.13 | 1.92 | 1.49 | enough cells to score | Dusp8 | 1
0.29 | 1.62 | 1.58 | enough cells to score | AU040320 | 1
– | 1.33 | 1.47 | fewer than 50 cells per well; well left out of scoring | Or2b7 | 1
0.7 | 1.65 | 1.6 | enough cells to score | Fmnl1 | 1
1.51 | 1.85 | 1.83 | enough cells to score | Or8k25 | 1
2.08 | 1.67 | 1.7 | enough cells to score | Or8k25 | 2
– | 1.25 | 1.21 | fewer than 50 cells per well; well left out of scoring | Psme3 | 1
-2.08 (active) | 1.12 | 1.18 | enough cells to score | Dusp19 | 1
-0.23 | 1.44 | 1.31 | enough cells to score | Gtf2h4 | 1
-1.32 | 1.24 | 1.03 | enough cells to score | Sart3 | 1
0.23 | 1.56 | 1.4 | enough cells to score | Limk2 | 1
0.89 | 1.69 | 1.6 | enough cells to score | Ring1 | 1
0.24 | 1.54 | 1.64 | enough cells to score | Tango6 | 1
0.43 | 1.68 | 1.56 | enough cells to score | Wbp1l | 1
– | 1.57 | 1.26 | fewer than 50 cells per well; well left out of scoring | Sostdc1 | 1
-1.68 (active) | 1.25 | 1.12 | enough cells to score | Foxd2 | 1
0.07 | 1.5 | 1.61 | enough cells to score | Fshr | 1
-2.12 (active) | 1.41 | 1.26 | enough cells to score | H4c14 | 1
-0.47 | – | 1.53 | enough cells to score | Atp5pf | 1
0.55 | 1.5 | 1.23 | enough cells to score | Prl8a1 | 1
0.95 | 1.66 | 1.51 | enough cells to score | Pip5k1b | 1
0 | 1.44 | 1.42 | enough cells to score | Emc4 | 1
2 | 1.69 | 1.9 | enough cells to score | Rab17 | 1
0.73 | 1.78 | 1.73 | enough cells to score | Actr6 | 1
-1.59 (active) | 1.33 | 1.28 | enough cells to score | Ggta1 | 1
0.57 | 1.61 | 1.56 | enough cells to score | Rraga | 1
-1.23 | 1.33 | 1.65 | enough cells to score | Ccdc43 | 1
0.16 | 1.61 | 1.66 | enough cells to score | Neurl4 | 1

Part of the list above in another layout:
{"target gene": "Tra2b", "reagent no.": 1, "p65 translocation robust z-score": -1.29, "nuclear/cytoplasmic p65 ratio, rep 1": 1.18, "nuclear/cytoplasmic p65 ratio, rep 2": 1.15, "low cell count flag": "enough cells to score"}
{"target gene": "Tra2b", "reagent no.": 1, "nuclear/cytoplasmic p65 ratio, rep 1": 1.21, "nuclear/cytoplasmic p65 ratio, rep 2": 1.21, "low cell count flag": "fewer than 50 cells per well; well left out of scoring"}
{"target gene": "Dusp8", "reagent no.": 1, "p65 translocation robust z-score": 1.13, "nuclear/cytoplasmic p65 ratio, rep 1": 1.92, "nuclear/cytoplasmic p65 ratio, rep 2": 1.49, "low cell count flag": "enough cells to score"}
{"target gene": "AU040320", "reagent no.": 1, "p65 translocation robust z-score": 0.29, "nuclear/cytoplasmic p65 ratio, rep 1": 1.62, "nuclear/cytoplasmic p65 ratio, rep 2": 1.58, "low cell count flag": "enough cells to score"}
{"target gene": "Or2b7", "reagent no.": 1, "nuclear/cytoplasmic p65 ratio, rep 1": 1.33, "nuclear/cytoplasmic p65 ratio, rep 2": 1.47, "low cell count flag": "fewer than 50 cells per well; well left out of scoring"}
{"target gene": "Fmnl1", "reagent no.": 1, "p65 translocation robust z-score": 0.7, "nuclear/cytoplasmic p65 ratio, rep 1": 1.65, "nuclear/cytoplasmic p65 ratio, rep 2": 1.6, "low cell count flag": "enough cells to score"}
{"target gene": "Or8k25", "reagent no.": 1, "p65 translocation robust z-score": 1.51, "nuclear/cytoplasmic p65 ratio, rep 1": 1.85, "nuclear/cytoplasmic p65 ratio, rep 2": 1.83, "low cell count flag": "enough cells to score"}
{"target gene": "Or8k25", "reagent no.": 2, "p65 translocation robust z-score": 2.08, "nuclear/cytoplasmic p65 ratio, rep 1": 1.67, "nuclear/cytoplasmic p65 ratio, rep 2": 1.7, "low cell count flag": "enough cells to score"}
{"target gene": "Psme3", "reagent no.": 1, "nuclear/cytoplasmic p65 ratio, rep 1": 1.25, "nuclear/cytoplasmic p65 ratio, rep 2": 1.21, "low cell count flag": "fewer than 50 cells per well; well left out of scoring"}
{"target gene": "Dusp19", "reagent no.": 1, "p65 translocation robust z-score": "-2.08 (active)", "nuclear/cytoplasmic p65 ratio, rep 1": 1.12, "nuclear/cytoplasmic p65 ratio, rep 2": 1.18, "low cell count flag": "enough cells to score"}
{"target gene": "Gtf2h4", "reagent no.": 1, "p65 translocation robust z-score": -0.23, "nuclear/cytoplasmic p65 ratio, rep 1": 1.44, "nuclear/cytoplasmic p65 ratio, rep 2": 1.31, "low cell count flag": "enough cells to score"}
{"target gene": "Sart3", "reagent no.": 1, "p65 translocation robust z-score": -1.32, "nuclear/cytoplasmic p65 ratio, rep 1": 1.24, "nuclear/cytoplasmic p65 ratio, rep 2": 1.03, "low cell count flag": "enough cells to score"}
{"target gene": "Limk2", "reagent no.": 1, "p65 translocation robust z-score": 0.23, "nuclear/cytoplasmic p65 ratio, rep 1": 1.56, "nuclear/cytoplasmic p65 ratio, rep 2": 1.4, "low cell count flag": "enough cells to score"}
